These are yes or no findings as the source states them, for the method shown. Binding seen in cells or lysates may run through a third protein. Some entries that bind do so weakly or less than the wild type.
Legend:
Assay in all cases: co-IP
Myc-Nur77 = Myc-Nur77 (UniProt P22736)
Myc-Nur77-R346K = Myc-Nur77-R346K (UniProt P22736)
Flag-NR4A2 = Flag-NR4A2 (UniProt P43354)
Flag-NR4A3 = Flag-NR4A3 (UniProt Q92570)

Protein sequences, listed by entry. Tags and fused reporters are not part of them. Lines headed by an entry give the natural chain unless they say otherwise; changes in a name come on top.
UniProt P22736, whole entry: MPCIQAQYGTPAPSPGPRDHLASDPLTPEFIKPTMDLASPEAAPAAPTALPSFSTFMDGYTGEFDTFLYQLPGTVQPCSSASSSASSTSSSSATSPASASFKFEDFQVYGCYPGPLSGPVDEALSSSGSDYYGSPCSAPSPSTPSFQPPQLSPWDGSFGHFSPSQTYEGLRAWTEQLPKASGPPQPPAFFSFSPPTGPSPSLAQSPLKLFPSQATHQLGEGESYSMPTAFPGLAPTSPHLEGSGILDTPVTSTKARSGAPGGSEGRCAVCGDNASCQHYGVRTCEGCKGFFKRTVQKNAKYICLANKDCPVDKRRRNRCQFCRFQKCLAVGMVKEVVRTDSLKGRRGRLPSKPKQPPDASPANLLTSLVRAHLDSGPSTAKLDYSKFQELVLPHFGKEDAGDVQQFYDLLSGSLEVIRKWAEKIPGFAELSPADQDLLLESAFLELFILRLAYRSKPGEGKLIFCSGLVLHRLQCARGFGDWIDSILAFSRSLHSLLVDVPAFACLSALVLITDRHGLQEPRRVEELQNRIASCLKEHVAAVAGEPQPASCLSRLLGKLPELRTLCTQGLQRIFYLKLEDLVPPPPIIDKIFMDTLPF
UniProt P43354, whole entry: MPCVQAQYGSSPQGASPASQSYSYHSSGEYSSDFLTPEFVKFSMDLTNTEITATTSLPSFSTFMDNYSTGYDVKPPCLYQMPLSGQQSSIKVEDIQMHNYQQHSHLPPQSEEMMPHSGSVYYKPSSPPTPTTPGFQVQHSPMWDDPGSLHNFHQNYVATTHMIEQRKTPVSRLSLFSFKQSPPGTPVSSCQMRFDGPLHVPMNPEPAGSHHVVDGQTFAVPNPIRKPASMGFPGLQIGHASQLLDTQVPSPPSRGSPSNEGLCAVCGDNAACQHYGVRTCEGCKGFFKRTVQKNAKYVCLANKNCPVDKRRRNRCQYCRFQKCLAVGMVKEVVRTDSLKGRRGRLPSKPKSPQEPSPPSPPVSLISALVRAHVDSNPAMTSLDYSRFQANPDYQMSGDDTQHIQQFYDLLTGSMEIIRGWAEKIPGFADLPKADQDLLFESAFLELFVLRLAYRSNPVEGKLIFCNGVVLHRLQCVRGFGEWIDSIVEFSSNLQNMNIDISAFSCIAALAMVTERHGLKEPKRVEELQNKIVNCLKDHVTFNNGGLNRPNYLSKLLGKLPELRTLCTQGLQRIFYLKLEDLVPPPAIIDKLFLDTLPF
UniProt Q92570, whole entry: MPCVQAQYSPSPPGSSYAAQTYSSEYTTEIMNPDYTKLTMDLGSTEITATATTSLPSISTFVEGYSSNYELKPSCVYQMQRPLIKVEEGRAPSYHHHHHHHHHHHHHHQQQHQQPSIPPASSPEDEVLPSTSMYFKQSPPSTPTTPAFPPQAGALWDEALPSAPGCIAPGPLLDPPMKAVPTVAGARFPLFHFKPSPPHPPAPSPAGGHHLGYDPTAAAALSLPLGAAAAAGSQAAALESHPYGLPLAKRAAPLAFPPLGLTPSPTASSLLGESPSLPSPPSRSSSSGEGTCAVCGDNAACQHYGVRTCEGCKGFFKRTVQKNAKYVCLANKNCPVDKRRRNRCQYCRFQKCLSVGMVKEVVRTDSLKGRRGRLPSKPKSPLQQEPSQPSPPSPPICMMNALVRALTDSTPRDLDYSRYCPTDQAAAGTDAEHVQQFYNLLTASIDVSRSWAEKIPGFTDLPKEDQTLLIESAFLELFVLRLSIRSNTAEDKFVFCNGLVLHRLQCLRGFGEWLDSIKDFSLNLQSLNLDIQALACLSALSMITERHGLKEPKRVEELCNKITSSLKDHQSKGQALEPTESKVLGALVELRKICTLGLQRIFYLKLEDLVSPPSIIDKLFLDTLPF
UniProt P31749, whole entry: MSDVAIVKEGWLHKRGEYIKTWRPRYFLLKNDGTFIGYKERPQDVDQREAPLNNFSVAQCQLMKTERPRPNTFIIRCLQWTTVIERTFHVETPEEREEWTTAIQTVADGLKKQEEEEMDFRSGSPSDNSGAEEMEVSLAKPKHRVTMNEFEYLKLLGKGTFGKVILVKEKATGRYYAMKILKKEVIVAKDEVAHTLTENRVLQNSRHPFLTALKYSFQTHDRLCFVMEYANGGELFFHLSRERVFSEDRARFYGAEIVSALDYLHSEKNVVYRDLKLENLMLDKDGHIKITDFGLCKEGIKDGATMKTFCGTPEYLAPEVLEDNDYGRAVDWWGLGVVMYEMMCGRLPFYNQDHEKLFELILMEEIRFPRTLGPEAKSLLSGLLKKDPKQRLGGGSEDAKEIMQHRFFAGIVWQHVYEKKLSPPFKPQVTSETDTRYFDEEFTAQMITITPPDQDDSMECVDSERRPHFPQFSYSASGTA
UniProt O14744, whole entry: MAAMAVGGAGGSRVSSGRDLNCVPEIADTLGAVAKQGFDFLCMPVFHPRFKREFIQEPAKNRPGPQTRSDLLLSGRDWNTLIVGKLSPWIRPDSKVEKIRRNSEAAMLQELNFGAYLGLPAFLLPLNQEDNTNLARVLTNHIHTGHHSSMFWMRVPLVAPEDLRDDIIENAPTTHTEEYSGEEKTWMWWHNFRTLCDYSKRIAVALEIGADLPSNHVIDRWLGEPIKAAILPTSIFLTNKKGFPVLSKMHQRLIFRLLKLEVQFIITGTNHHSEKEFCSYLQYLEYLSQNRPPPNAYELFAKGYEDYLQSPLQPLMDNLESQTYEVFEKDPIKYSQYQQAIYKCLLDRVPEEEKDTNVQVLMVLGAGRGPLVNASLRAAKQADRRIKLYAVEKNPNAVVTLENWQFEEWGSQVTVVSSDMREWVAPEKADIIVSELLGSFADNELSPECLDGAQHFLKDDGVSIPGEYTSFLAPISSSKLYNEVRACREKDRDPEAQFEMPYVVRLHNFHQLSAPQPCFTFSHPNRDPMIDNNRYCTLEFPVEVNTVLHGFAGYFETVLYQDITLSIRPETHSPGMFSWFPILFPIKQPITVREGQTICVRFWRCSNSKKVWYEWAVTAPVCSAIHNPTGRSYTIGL

binding (Myc-Nur77)	binding (Myc-Nur77-R346K)	binding (Flag-NR4A2)	binding (Flag-NR4A3)	Substance
binds	binds			AKT1-HA (from UniProt P31749 1-480) (enzyme)
binds	binds	binds	binds	OFP-PRMT5 (from UniProt O14744 1-637) (enzyme)

Source: doi:10.1101/2024.02.06.579055
